Tested on: HDF cells
Assay: Long term induction of CiPSC from HDF with compound cocktails
Format: cell-based, human
Details: synchronization of cells

CN[C@H]1CCc2cc(OC)c(OC)c(OC)c2-c2ccc(OC)c(=O)cc21 [Colcemid, N-deacetyl-N-Methylcolchicine]
Efficiency of induction: increased efficiency

From patent US9988607B2, “Artificial three-dimensional microenvironment niche culture and methods of using the same” (priority 2008, dated 2018)
